# Reference: US7037901B1, “Radiosensitization by indolocarbazole derivatives” (priority 2001, dated 2006)
# The chains behind the UniProt entries cited, without tags or fusion partners. Residues count along the entry.
# UniProt Q07050, 2-767 S505G: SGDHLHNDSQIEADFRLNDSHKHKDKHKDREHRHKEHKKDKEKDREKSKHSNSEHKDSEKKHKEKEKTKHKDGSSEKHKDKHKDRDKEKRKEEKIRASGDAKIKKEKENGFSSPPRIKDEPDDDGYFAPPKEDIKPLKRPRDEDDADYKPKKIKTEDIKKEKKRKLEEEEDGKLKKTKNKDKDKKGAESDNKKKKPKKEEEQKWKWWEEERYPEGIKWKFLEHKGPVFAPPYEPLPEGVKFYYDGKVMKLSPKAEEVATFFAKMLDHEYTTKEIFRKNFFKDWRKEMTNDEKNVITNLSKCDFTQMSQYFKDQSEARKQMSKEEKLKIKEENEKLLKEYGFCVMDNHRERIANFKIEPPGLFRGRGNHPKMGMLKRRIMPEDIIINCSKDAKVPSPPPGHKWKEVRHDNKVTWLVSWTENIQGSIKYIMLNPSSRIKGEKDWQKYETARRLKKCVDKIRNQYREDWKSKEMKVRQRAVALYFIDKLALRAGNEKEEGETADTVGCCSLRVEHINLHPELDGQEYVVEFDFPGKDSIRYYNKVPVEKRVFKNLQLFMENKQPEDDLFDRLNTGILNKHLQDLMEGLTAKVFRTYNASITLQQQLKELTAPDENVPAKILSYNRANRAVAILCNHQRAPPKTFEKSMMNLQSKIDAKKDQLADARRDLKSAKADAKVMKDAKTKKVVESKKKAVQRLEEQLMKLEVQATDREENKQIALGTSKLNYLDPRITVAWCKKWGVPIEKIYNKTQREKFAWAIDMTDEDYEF
# At least one compound was matched to its structure with a doubt left.
# Biological target: T1, covalent topoisomerase-DNA cross-links in CHO cells (Cricetulus griseus, UniProt Q07050, S505G)
# T1 construct: endogenous in cells; host or cells: Chinese hamster ovary CHO cells
# Assay: In vivo K+-SDS co-precipitation assay for protein-DNA cross-links
# Assay type: cell-based, Chinese hamster
# Conditions: FIG. 5
# Description: In vivo K^+-SDS co-precipitation assay for protein-DNA cross-links. The K^+-SDS co-precipitation assay as described previously (Chen, Y. N., et al., J. Biol. Chem., 265:10073–10080 (1990)) was used to quantify the formation of covalent topoisomerase-DNA cross-links in drug-treated cells.
# Briefly, the DNA in logarithmic growing Chinese hamster CHO cells was overnight-labeled in medium containing 1 μCi/ml of [mehtyl-^3H] thymidine. These cells were then trypsinized and diluted in fresh medium before aliquoted into a 24-well plate. After overnight incubation, the labeled cells were treated with various concentrations of drugs for 30 min, washed with phosphate-buffered saline once, and lysed by adding 1 ml of prewarmed lysis solution (1.25% SDS, 5 mM EDTA, 0.4 mg/ml salmon sperm DNA, pH 8.0, 65° C.).
# Following shearing chromosomal DNA by passing the lysate through a 19-gauge needle, the sample was transferred to a tube containing 0.25 ml of 325 mM KCl. The sample was vortexed vigorously for 10 s, cooled on ice for 10 min and centrifuged at 3000 rpm for 10 min at 4° C.
# The pellet was then resuspended in 1 ml of a wash solution (100 mM KCl, 1 mM EDTA, 0.1 mg/ml salmon sperm DNA, 10 mM Tris-HCl, pH 8.0) and placed at 65° C. for 10 min with occasional mixing. The sample was again cooled on ice for 10 min and centrifuged at 3000 rpm for 10 min at 4° C. After the pellet from each sample was washed again, the pellet was finally resuspended in 0.2 ml of 65° C. water and added to 5 ml of scintillation fluid to determine radioactive counts.
# The background precipitable counts were obtained by treating the lysate with proteinase K (400 μg/ml) at 65° C. for 2 h. Data are arithmetic means (±SD) of three determinations, and the background counts have been subtracted.
row,Compound,Potency in stabilizing DNA-protein crosslinks (rank order)
1,COC1C(CO)OC(n2c3ccccc3c3c4c(c5c6ccccc6[nH]c5c32)C(=O)N(C)C4=O)C(O)C1O (stereo not drawn) [F44],F71>F7=F1>F44>F5>F43
2,COC1C(CO)OC(n2c3ccccc3c3c4c(c5c6ccccc6[nH]c5c32)C(=O)NC4=O)C(O)C1O (stereo not drawn) [F71],F71>F7=F1>F44>F5>F43
3,COC1C(CO)OC(n2c3c(Cl)cccc3c3c4c(c5c6cccc(Cl)c6[nH]c5c32)C(=O)N(C)C4=O)C(O)C1O (stereo not drawn) [F43],F71>F7=F1>F44>F5>F43
